Reference: the supplement of paper PMC6411743
± gives the standard deviation of the averaged measurements. Only a part is listed here, and it is no random draw.

Sequences of proteins named here, by UniProt entry; tags and fusion partners are left off. A change or cut given only in a name is not applied to a line headed by its entry.
UniProt Q6P1Q9: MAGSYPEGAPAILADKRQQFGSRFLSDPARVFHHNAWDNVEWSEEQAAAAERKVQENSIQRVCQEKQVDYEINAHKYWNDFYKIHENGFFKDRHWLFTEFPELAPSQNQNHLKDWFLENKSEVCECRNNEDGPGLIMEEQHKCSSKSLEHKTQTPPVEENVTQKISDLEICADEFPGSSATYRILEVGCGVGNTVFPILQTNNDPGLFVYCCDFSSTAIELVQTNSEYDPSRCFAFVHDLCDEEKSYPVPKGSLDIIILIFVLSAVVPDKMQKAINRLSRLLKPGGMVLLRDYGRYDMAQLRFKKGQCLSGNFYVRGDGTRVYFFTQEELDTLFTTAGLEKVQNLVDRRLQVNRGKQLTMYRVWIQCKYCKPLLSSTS
UniProt Q6IAA8, whole entry: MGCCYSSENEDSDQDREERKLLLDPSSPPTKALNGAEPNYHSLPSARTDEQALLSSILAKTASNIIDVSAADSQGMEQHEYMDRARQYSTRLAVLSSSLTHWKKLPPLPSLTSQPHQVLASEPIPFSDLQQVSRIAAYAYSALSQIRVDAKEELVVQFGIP
UniProt Q6GMV2: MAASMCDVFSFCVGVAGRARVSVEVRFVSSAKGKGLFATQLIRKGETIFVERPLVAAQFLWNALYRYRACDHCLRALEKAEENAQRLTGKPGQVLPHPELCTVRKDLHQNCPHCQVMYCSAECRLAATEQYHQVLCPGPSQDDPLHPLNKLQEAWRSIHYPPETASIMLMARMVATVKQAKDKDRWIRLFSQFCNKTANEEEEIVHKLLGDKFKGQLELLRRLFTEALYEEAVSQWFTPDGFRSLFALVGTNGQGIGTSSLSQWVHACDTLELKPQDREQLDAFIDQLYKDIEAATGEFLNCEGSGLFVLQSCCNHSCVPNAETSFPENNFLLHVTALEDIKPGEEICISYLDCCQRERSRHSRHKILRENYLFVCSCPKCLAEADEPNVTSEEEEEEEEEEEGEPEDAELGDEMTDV
UniProt Q5TC82: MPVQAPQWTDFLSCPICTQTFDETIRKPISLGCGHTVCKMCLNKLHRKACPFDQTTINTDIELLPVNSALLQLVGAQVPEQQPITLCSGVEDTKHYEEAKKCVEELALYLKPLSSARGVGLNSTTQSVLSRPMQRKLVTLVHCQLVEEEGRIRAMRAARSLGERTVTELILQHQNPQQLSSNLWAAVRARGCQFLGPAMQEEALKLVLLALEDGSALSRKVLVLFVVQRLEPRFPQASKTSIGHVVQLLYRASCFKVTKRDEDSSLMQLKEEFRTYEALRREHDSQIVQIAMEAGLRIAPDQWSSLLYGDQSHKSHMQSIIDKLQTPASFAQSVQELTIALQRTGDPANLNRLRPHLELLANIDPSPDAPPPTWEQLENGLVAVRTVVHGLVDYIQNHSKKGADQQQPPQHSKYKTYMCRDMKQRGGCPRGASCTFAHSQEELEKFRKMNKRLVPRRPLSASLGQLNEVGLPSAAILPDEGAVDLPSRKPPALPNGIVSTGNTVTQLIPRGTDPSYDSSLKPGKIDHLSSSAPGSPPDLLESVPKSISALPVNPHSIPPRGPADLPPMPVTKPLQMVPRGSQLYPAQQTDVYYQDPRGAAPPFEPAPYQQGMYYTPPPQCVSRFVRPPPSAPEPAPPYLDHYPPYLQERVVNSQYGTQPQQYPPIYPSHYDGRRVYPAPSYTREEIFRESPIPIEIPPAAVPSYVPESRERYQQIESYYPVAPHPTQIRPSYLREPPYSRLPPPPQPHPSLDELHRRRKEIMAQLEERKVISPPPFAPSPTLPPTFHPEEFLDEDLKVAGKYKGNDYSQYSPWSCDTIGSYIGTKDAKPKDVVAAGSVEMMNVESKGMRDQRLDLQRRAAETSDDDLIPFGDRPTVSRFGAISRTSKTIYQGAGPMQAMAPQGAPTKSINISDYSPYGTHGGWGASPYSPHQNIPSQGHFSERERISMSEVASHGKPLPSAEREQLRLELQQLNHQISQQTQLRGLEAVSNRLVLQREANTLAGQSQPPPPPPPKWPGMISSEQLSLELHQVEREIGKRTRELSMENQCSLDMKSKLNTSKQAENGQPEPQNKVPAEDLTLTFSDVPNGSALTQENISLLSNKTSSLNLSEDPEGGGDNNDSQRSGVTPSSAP
UniProt Q9UGV2: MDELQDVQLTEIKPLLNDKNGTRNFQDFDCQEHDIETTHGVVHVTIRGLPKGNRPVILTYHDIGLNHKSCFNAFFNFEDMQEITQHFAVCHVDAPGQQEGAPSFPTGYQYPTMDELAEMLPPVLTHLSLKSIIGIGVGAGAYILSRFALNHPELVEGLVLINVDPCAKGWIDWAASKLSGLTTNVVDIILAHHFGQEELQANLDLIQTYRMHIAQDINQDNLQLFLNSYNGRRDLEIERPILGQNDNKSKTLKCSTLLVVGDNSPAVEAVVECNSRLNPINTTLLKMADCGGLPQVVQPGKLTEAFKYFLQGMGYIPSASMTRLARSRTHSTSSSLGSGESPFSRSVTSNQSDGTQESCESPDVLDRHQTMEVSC
UniProt Q6IPR3: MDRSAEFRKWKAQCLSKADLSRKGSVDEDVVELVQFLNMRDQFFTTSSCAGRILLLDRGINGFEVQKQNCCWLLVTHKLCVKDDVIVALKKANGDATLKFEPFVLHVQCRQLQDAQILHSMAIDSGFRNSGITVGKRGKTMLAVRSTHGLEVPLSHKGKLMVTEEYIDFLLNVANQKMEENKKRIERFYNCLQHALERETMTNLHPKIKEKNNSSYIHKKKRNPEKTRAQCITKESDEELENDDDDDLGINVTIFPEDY
UniProt Q5UIP0: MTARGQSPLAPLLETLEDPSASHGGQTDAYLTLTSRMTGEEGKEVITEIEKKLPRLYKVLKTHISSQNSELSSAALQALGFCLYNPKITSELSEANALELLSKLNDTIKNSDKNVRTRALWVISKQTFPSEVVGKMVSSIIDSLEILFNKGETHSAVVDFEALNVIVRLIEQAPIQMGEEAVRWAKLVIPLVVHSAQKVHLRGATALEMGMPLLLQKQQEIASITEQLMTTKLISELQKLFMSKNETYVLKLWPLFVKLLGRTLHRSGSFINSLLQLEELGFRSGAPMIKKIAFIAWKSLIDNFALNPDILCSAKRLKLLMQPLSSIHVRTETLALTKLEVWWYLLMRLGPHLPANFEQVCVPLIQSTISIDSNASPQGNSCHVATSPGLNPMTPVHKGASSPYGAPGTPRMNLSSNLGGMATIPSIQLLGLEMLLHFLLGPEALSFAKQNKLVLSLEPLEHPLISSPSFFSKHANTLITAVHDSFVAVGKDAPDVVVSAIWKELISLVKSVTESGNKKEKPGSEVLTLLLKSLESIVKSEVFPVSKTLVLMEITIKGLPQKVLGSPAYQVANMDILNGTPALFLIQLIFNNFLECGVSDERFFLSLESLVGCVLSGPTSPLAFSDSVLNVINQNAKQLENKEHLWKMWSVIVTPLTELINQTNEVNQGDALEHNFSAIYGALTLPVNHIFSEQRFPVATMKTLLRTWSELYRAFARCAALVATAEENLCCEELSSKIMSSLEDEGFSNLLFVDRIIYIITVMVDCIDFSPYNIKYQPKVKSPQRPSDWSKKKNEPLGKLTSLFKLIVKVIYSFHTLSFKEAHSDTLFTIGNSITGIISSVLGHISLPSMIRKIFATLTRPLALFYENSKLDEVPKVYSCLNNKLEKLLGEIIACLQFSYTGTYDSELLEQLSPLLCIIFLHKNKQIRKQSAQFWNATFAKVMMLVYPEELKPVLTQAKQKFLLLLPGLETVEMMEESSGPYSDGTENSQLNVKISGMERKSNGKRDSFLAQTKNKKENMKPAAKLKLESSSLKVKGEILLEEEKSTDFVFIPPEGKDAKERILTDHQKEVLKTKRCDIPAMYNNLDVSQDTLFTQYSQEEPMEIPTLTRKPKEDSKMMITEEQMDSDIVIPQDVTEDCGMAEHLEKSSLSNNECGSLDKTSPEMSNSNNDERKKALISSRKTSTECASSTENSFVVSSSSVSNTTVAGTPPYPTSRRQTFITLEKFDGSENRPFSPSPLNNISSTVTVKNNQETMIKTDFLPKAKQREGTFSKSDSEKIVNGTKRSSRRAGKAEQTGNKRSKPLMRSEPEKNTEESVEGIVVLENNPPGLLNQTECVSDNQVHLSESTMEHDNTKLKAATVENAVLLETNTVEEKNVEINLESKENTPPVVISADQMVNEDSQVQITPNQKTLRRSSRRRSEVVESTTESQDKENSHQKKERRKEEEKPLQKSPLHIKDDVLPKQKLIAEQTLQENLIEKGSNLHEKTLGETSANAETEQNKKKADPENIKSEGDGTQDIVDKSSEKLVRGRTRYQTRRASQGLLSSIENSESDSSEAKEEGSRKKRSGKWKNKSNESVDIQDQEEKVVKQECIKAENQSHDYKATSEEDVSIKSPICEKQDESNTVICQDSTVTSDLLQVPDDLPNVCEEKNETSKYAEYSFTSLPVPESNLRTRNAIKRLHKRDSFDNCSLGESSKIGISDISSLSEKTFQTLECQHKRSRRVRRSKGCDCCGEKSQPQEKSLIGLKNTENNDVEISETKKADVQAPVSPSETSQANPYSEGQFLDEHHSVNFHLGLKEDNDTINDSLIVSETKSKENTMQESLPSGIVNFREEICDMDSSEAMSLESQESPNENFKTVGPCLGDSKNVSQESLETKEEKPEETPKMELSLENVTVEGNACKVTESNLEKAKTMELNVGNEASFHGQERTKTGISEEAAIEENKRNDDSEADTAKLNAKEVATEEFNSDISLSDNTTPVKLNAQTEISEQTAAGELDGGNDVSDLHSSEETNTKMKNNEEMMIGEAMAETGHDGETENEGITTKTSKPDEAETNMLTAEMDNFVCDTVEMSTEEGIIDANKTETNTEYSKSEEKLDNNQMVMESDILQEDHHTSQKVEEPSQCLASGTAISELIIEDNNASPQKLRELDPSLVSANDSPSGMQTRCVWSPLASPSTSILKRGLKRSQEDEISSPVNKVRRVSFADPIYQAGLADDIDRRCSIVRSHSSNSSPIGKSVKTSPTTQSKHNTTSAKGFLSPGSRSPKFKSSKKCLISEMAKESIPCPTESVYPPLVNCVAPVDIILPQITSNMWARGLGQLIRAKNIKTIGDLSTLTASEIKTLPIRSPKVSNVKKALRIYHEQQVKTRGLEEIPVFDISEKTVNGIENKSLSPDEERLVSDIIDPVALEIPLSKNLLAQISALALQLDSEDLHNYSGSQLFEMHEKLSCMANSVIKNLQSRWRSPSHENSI
UniProt Q69YH5: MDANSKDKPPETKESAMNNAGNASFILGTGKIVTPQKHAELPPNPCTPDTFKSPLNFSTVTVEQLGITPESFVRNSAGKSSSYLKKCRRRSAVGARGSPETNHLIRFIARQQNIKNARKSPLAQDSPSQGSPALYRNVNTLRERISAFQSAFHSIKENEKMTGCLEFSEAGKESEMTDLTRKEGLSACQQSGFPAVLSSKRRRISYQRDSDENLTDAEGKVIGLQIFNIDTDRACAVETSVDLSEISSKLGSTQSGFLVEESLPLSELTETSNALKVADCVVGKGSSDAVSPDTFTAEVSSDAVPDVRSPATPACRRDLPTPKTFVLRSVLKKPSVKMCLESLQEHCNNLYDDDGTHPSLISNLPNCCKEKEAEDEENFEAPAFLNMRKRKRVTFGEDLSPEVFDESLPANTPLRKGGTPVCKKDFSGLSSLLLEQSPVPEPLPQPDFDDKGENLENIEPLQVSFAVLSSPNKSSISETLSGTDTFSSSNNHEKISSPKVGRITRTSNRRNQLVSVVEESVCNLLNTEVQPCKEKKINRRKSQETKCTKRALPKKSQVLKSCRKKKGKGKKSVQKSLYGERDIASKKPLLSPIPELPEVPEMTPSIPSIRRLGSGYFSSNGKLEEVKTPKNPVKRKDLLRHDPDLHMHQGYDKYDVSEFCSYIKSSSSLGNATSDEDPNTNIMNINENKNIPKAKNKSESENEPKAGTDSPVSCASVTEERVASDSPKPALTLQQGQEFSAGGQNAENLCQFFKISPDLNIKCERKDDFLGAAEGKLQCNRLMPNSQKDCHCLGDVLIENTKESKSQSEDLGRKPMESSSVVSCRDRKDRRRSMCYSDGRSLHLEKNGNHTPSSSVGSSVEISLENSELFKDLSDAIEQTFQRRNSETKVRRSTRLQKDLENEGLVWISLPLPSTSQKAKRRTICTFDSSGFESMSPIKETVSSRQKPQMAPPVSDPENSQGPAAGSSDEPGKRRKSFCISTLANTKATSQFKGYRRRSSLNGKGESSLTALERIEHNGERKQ

Compound: Nc1ncnc2c1ncn2[C@@H]1O[C@H](COP(=O)(O)OP(=O)(O)OP(=O)(O)O)[C@@H](O)[C@H]1O [adenosine triphosphate]
Assay: NP40-soluble protein abundance relative to vehicle (solubility fold change) (ratio); higher = more soluble protein in presence of ATP
Procedure, shortened: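 Crude Jurkat lysate, prepared by Dounce homogenisation, was exposed to eight concentrations from 0.1 to 10 mM for 10 min at room temperature and then 3 min at 37 °C. Solubilisation used 0.8% NP40 with benzonase for 60 min at 4 °C, followed by ultracentrifugation and TMT labelling of the supernatant for LC-MS/MS. After vsn normalisation of intensities, each value is the fold change against the detergent-processed vehicle within each replicate, across three independent experiments.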

Target	NP40-soluble protein abundance (concentration: 1mM)	NP40-soluble protein abundance (concentration: 2mM)	NP40-soluble protein abundance (concentration: 4mM)	NP40-soluble protein abundance (concentration: 6mM)	NP40-soluble protein abundance (concentration: 8mM)	NP40-soluble protein abundance (concentration: 10mM)
METTL2B (UniProt Q6P1Q9)	1.01 ± 0.077	1 ± 0.02	1.03 ± 0.07	0.966 ± 0.032	1.009 ± 0.0058	0.961 ± 0.034
UniProt Q5VW36 and related entries	0.872 ± 0.051	0.883 ± 0.063	0.924 ± 0.0074	0.9248 ± 0.0075	1 ± 0.039	0.956 ± 0.076
UniProt Q6IAA8	0.934 ± 0.074	0.989 ± 0.057	0.991 ± 0.037	1.02 ± 0.11	0.942 ± 0.045	0.913 ± 0.077
SMYD5 (UniProt Q6GMV2)	0.983 ± 0.098	0.962 ± 0.063	0.948 ± 0.015	0.883 ± 0.11	0.926 ± 0.03	0.963 ± 0.024
UniProt Q5TC82 and related entries	1.08 ± 0.047	1.02 ± 0.075	1.06 ± 0.085	1.1 ± 0.069	1.09 ± 0.016	1.01 ± 0.035
RPL7L1 (UniProt Q6DKI1)	1.03 ± 0.095	1.05 ± 0.097	0.997 ± 0.076	1.02 ± 0.091	0.894 ± 0.049	1.03 ± 0.12
UniProt Q5GLZ8 and related entries	1.03 ± 0.054	1.04 ± 0.064	1.06 ± 0.12	0.976 ± 0.056	1.05 ± 0.06	1.04 ± 0.045
Q5TH30 and related entries (UniProt Q9UGV2)	0.994 ± 0.071	0.995 ± 0.041	0.979 ± 0.02	0.987 ± 0.093	0.951 ± 0.048	0.978 ± 0.015
UniProt Q53F19	0.961 ± 0.029	1.02 ± 0.019	1.06 ± 0.013	1.17 ± 0.036	1.15 ± 0.022	1.2 ± 0.025
UniProt Q6N069	1.09 ± 0.18	1.06 ± 0.1	1.09 ± 0.1	1.02 ± 0.15	1.12 ± 0.1	1.09 ± 0.075
PPP2R2D (UniProt Q66LE6)	1.08 ± 0.11	1.01 ± 0.055	1.03 ± 0.068	0.988 ± 0.072	1.04 ± 0.098	1.02 ± 0.055
TYW3 (UniProt Q6IPR3)	0.96 ± 0.15	0.948 ± 0.16	0.973 ± 0.15	0.873 ± 0.16	0.921 ± 0.11	0.956 ± 0.12
RIF1 (UniProt Q5UIP0)	1.04 ± 0.048	1.07 ± 0.04	1.06 ± 0.035	1.14 ± 0.087	1.09 ± 0.025	1.15 ± 0.025
UniProt Q6P996 and related entries	1.03 ± 0.029	1.01 ± 0.042	1 ± 0.045	0.986 ± 0.076	0.984 ± 0.053	0.986 ± 0.049
UniProt Q69YH5 and related entries	0.956 ± 0.054	0.96 ± 0.03	0.984 ± 0.032	0.958 ± 0.037	0.9408 ± 0.0053	0.959 ± 0.041
UniProt Q5T0N5-3|Q5T0N5-4	0.956 ± 0.033	0.9877 ± 0.0049	0.995 ± 0.013	1.03 ± 0.016	0.98 ± 0.015	0.991 ± 0.019
UniProt Q659A1	0.956 ± 0.1	1.09 ± 0.088	1.05 ± 0.03	1.11 ± 0.1	1.07 ± 0.017	1.08 ± 0.071

As a short view, some entries already given:
Target	NP40-soluble protein abundance (concentration: 1mM)	NP40-soluble protein abundance (concentration: 2mM)	NP40-soluble protein abundance (concentration: 4mM)	NP40-soluble protein abundance (concentration: 6mM)	NP40-soluble protein abundance (concentration: 8mM)	NP40-soluble protein abundance (concentration: 10mM)
Q5TH30 and related entries (UniProt Q9UGV2)	0.994 ± 0.071	0.995 ± 0.041	0.979 ± 0.02	0.987 ± 0.093	0.951 ± 0.048	0.978 ± 0.015
UniProt Q53F19	0.961 ± 0.029	1.02 ± 0.019	1.06 ± 0.013	1.17 ± 0.036	1.15 ± 0.022	1.2 ± 0.025
UniProt Q6N069	1.09 ± 0.18	1.06 ± 0.1	1.09 ± 0.1	1.02 ± 0.15	1.12 ± 0.1	1.09 ± 0.075
